This passage reports binding results from PMC2643527.

Assay [1] has as its target T1, GST-CSPα 1-198 (full length cysteine string protein alpha) (rat) (UniProt P60905).
T1 sequence: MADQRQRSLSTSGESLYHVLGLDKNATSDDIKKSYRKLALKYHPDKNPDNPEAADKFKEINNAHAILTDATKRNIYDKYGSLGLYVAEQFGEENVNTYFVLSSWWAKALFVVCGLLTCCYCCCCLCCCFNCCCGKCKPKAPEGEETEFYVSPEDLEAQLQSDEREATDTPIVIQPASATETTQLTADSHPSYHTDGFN
Kind of assay: pull-down; GST-CSPα fusion proteins immobilised on sepharose beads, incubated with 1 µM soluble recombinant Hsp40 or its mutants; washed, Western blot with anti-Hsp40 polyclonal; both purified. In general terms: A western blot detects proteins with antibodies after separation by electrophoresis.

Another assay has as its target T2, GST-CSPα 1-112 (rat) (UniProt P60905).
T2 sequence: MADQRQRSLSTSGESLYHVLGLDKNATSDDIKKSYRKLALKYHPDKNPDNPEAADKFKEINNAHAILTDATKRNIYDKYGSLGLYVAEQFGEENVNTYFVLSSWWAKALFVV
Described as above.

No constants are given. Whether binding was seen depends on the method and setting. Binding calls can cover weak binding; strength is not graded here. Tags and fused reporters may be left off the sequences shown.

With “Hsp40 1-80 HPD→AAA (rat) (domain or fragment)”, the binding result (in assay [1]; in the assay with GST-CSPα 1-112 (rat)) was “no binding (tested: 1 µM)” in each case.

In the case of Hsp40 1-340 HPD→AAA (rat), the binding result (in assay [1]; in the assay with GST-CSPα 1-112 (rat)) was “binds” throughout.

Consider Hsp40 1-80 (rat) (domain or fragment), for which the binding entry (in assay [1]; in the assay with GST-CSPα 1-112 (rat)) was “no binding (tested: 1 µM)” in each case.

As to “Hsp40 1-340 (full length, soluble recombinant) (rat)”, the binding entry (in assay [1]; with GST-CSPα 1-112 (rat)) was “binds” throughout.
